Laboratory results taken from patent US12559537B2, “Nucleic acid encoding NKP30 receptor targeted therapeutics” (THE TRUSTEES OF DARTMOUTH COLLEGE, priority 2011, dated 2026).
For at least one compound, name, drawing or mass did not settle the structure.

System: PI3K
Test: PI3K inhibitor effect on chimeric NKp30 T cell cytotoxicity (LDH release)
Assay type: cell-based, human
Settings: 10 μM, 1 h pre-incubation of T cells; 5-h LDH release

SMILES: O=c1cc(N2CCOCC2)oc2c(-c3ccccc3)cccc12 [LY294002]
- decrease of specific lysis by chimeric NKp30-CD3ζ T cells incubated with the inhibitor: not observed
- specific lysis by chimeric NKp30-CD28-CD3ζ T cells incubated with the inhibitor: significantly decreased
